Here are results for four molecules from PMC8997538.

Results are given in words; binding and its absence hold for the method and conditions named. In cells and extracts the contact can be indirect. Some entries that bind do so weakly or less than the wild type. Tags and fused reporters may be left off the sequences shown.

One test deals with T1, 3×Myc-CARD19-WT (mouse) (UniProt Q9D1I2).
T1 sequence: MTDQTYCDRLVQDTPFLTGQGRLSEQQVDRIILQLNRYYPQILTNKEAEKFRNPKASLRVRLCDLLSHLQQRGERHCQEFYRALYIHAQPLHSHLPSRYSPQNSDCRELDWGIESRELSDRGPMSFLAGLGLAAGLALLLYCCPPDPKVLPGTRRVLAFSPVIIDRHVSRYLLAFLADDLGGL
In words: co-IP; lysates of macrophages stably expressing Myc-tagged constructs, precleared, 2 µg mouse anti-Myc (9E10) 16 to 20 h at 4 °C, Protein G Sepharose, three washes; 50 mM Tris-HCl pH 7.5, 150 mM NaCl, 1% Triton X-100; Western blot.

Test [1] deals with T2, 3×Myc-CARD19-G73R (mouse) (UniProt Q9D1I2).
T2 sequence: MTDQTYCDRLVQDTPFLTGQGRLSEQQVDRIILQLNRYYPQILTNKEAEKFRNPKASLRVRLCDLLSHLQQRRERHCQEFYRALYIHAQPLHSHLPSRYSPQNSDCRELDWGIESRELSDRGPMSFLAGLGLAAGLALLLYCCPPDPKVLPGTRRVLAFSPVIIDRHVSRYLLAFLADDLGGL
The description is as above.

B1: MIC19 (protein, UniProt Q9CRB9 1-227)
chain: MGGTASTRRVTFEADENENITVVKGIRLSENVIDRMKESSPSGSKSQRYSSVYGASVSDEDLKRRVAEELALEQAKKESEHQRRLKQARDLERERAAANEQLTRAVLRERISSEEERMKAKHLARQLEEKDRVMRKQDAFYKEQLARLEERSSEFYKVTTEEYQKAAEEVEAKFKRYEYHPVCADLQTKILQCYRQNTQQTLSCSALASQYMHCVNHAKQSMLEKGG
As to B1, the binding result (with 3×Myc-CARD19-WT (mouse); in test [1]) was “binds” each time.

B2: mitochondrial antiviral signaling protein (MAVS) (protein, UniProt Q8VCF0 1-503)
chain: MTFAEDKTYKYIRDNHSKFCCVDVLEILPYLSCLTASDQDRLRASYRQIGNRDTLWGLFNNLQRRPGWVEVFIRALQICELPGLADQVTRVYQSYLPPGTSLRSLEPLQLPDFPAAVSGPSAFAPGHNIPDHGLRETPSCPKPVQDTQPPESPVENSEQLLQTNSGAVARMSGGSLIPSPNQQALSPQPSREHQEQEPELGGAHAANVASVPIATYGPVSPTVSFQPLPRTALRTNLLSGVTVSALSADTSLSSSSTGSAFAKGAGDQAKAATCFSTTLTNSVTTSSVPSPRLVPVKTMSSKLPLSSKSTAAMTSTVLTNTAPSKLPSNSVYAGTVPSRVPASVAKAPANTIPPERNSKQAKETPEGPATKVTTGGNQTGPNSSIRSLHSGPEMSKPGVLVSQLDEPFSACSVDLAISPSSSLVSEPNHGPEENEYSSFRIQVDESPSADLLGSPEPLATQQPQEEEEHCASSMPWAKWLGATSALLAVFLAVMLYRSRRLAQ
As to B2, in the test with 3×Myc-CARD19-WT (mouse), the binding entry is given as “no binding”.

B3: MIC25 (protein, UniProt Q91VN4 1-273)
chain: MGSAESAEARRVSFEMDEEERVRVLQGIRLSESVVNRMKDCSQPSAGEQLVPGFGPSSSAPVPTVPLPAISVPTVPAPTTPVPTAPSSSVRGLPGGTCKGPLTDVKVPSAESGGGLQSSAVKEDLKKFQQEQLAVQDEMVRVAKKEKEAAEKHLKASLPKKKASLTHEQQQSARLARELEDREAELSRRDTFYKEQQGRIQEKNAELYKLSSQQFHEAASKAESTIKPRRVEPVCSGLQAQILRCYRDHLHEVLLCSDLVKAYQHCVSTARKG
Consider B3, for which the binding entry with 3×Myc-CARD19-WT (mouse) is recorded as “binds”.

B4: SAMM50 (protein, UniProt Q8BGH2 1-469)
chain: MGTVHARSLEPLPSSGTDFGALGEEAEFVEVEPEAKQEILENKDVVVQHVHFDGLGRTKDDIIICEIGEVFKAKNLIEVMRRSHEAREKLLRLGIFRQVDVLIDTCHGEDALPNGLDVTFEVTELRRLTGSYNTMVGNNEGSMVLGLKLPNLLGRAEKVTFQFSYGTKETSYGLSFFKPQPGNFERNFSVNLYKVTGQFPWSSLRETDRGVSAEYSFPLWKTSHTVKWEGVWRELGCLSRTASFAVRKESGHSLKSSLSHAMVIDSRNSSILPRRGALFKVNQELAGYTGGDVSFIKEDFELQLNKPLALDSVFSTSLWGGMLVPIGDKPSSIADRFYLGGPTSVRGFSMHSIGPQSEGDYLGGEAYWAGGLHLYTPLPFRPGQGGFGELFRTHFFLNAGNLCNLNYGEGPKAHIRKLAECIRWSYGAGVVLRLGNIARLELNYCIPMGVQGGDRICDGVQFGAGIRFL
Turning to B4, the binding entry (with 3×Myc-CARD19-WT (mouse); in test [1]) was “binds” each time.
